The text below walks through data of publication PMC7693245.

The chains behind the UniProt entries cited, without tags or fusion partners.
UniProt P35222: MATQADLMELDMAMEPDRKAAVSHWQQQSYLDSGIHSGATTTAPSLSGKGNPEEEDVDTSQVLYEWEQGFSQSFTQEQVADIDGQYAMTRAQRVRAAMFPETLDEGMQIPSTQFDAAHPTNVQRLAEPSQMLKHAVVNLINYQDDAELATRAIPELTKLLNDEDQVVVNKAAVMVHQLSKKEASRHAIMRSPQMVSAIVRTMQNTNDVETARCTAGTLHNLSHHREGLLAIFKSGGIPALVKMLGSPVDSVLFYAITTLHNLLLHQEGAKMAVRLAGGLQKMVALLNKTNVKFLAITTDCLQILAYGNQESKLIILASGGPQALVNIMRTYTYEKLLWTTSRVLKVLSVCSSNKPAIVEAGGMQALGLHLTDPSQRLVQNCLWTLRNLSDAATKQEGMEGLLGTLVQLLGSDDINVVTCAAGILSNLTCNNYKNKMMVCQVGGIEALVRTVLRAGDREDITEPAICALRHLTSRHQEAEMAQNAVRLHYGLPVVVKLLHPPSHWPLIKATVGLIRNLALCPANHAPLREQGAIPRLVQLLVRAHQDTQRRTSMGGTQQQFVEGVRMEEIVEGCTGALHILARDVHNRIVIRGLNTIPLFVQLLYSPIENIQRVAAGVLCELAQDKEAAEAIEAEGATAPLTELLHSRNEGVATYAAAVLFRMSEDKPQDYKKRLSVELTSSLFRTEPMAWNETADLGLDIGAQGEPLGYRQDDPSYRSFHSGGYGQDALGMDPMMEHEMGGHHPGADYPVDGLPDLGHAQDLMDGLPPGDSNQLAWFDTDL

The target in assay [1] is T1, FOXM1 of the co-immunoprecipitation with β-catenin (Figure S3) (UniProt Q08050).
T1 sequence: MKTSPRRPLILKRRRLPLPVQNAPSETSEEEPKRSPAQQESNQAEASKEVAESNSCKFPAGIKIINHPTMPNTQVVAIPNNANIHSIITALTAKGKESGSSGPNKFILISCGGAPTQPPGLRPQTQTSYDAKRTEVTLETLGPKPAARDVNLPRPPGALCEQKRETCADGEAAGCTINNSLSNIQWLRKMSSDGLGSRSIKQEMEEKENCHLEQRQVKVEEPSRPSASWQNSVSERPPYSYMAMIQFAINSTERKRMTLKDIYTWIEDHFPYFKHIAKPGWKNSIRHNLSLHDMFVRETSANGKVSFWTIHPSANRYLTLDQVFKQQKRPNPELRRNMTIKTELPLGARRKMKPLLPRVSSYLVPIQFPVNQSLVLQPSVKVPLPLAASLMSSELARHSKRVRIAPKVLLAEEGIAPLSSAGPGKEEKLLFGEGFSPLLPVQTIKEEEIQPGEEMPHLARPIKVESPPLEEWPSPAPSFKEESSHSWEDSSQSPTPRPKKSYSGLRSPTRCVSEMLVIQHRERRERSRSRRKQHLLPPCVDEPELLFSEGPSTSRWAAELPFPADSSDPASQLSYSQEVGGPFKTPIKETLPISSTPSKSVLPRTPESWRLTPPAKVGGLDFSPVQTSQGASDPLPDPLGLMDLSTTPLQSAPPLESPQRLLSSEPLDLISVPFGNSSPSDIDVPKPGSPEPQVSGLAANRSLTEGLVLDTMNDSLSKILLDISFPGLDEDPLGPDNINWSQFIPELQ
Briefly: co-IP; co-immunoprecipitation of FOXM1 and β-catenin in A549 and H1299 cells (Figure S3); bait and antibodies not told.

Assay [2] deals with T2, FLAG-tagged family with sequence similarity 188 member B (FAM188B) (UniProt Q4G0A6).
T2 sequence: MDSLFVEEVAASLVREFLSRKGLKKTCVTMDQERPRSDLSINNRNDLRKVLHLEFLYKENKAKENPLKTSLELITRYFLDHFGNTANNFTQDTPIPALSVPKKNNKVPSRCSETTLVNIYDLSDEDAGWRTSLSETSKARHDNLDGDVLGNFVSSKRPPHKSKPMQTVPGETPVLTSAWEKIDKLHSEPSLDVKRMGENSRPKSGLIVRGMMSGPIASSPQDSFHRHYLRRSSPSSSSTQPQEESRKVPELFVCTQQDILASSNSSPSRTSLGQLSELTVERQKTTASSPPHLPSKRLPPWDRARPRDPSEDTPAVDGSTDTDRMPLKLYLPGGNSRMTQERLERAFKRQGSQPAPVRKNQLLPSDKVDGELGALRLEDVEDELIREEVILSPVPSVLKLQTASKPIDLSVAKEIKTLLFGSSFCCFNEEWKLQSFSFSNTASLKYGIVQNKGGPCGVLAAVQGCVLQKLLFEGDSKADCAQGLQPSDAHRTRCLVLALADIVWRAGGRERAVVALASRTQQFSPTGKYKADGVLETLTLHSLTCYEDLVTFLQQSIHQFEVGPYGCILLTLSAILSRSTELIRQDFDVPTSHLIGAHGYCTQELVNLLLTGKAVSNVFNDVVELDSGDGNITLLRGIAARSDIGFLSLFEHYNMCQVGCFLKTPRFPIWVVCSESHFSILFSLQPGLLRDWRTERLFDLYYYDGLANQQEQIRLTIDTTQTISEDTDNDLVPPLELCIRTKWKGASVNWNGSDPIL
Briefly: co-IP; cells transfected with FLAG-tagged FAM188B; lysed in M-PER buffer with protease inhibitor; 500 ug lysate with anti-FLAG-M2 agarose beads, 4 °C, 16 h; FOXM1 detected by immunoblot; A549, H1299 and PC9 cells. (A western blot detects proteins with antibodies after separation by electrophoresis.)

These are yes or no findings as the source states them, for the method shown. Binding seen in cells or lysates may run through a third protein. Some results given as binding are weak or reduced against the parent protein; the word gives no strength. For some assays here: Tags and fused reporters may be left off the sequences shown.

As for β-catenin (from UniProt P35222 1-781), in assay [1], the binding entry was “binds”.

B1: Forkhead box M1 (FOXM1) (protein, UniProt Q08050 1-763)
chain: MKTSPRRPLILKRRRLPLPVQNAPSETSEEEPKRSPAQQESNQAEASKEVAESNSCKFPAGIKIINHPTMPNTQVVAIPNNANIHSIITALTAKGKESGSSGPNKFILISCGGAPTQPPGLRPQTQTSYDAKRTEVTLETLGPKPAARDVNLPRPPGALCEQKRETCADGEAAGCTINNSLSNIQWLRKMSSDGLGSRSIKQEMEEKENCHLEQRQVKVEEPSRPSASWQNSVSERPPYSYMAMIQFAINSTERKRMTLKDIYTWIEDHFPYFKHIAKPGWKNSIRHNLSLHDMFVRETSANGKVSFWTIHPSANRYLTLDQVFKPLDPGSPQLPEHLESQQKRPNPELRRNMTIKTELPLGARRKMKPLLPRVSSYLVPIQFPVNQSLVLQPSVKVPLPLAASLMSSELARHSKRVRIAPKVLLAEEGIAPLSSAGPGKEEKLLFGEGFSPLLPVQTIKEEEIQPGEEMPHLARPIKVESPPLEEWPSPAPSFKEESSHSWEDSSQSPTPRPKKSYSGLRSPTRCVSEMLVIQHRERRERSRSRRKQHLLPPCVDEPELLFSEGPSTSRWAAELPFPADSSDPASQLSYSQEVGGPFKTPIKETLPISSTPSKSVLPRTPESWRLTPPAKVGGLDFSPVQTSQGASDPLPDPLGLMDLSTTPLQSAPPLESPQRLLSSEPLDLISVPFGNSSPSDIDVPKPGSPEPQVSGLAANRSLTEGLVLDTMNDSLSKILLDISFPGLDEDPLGPDNINWSQFIPELQ
Regarding B1, the binding entry in assay [2] is given as “binds”.
